Assay results from patent publication US9505794B2, “Ruthenium (II) complexes, preparation and uses thereof” (priority 2014, dated 2016).
For at least one compound, name, drawing or mass did not settle the structure. Some entries share one result that the patent states for a list of compounds.

Assays:
calf-thymus DNA (CT-DNA) = assay: Isothermal titration calorimetry (ITC) binding to CT-DNA; settings: Tris-HCl buffer pH=7.4, 25° C
Protocol: Relative binding affinity of complexes 1, 2, and 3 towards calf-thymus DNA (CT-DNA) were evaluated using isothermal titration calorimetry (ITC) (FIG. 20). Association constants and thermodynamic parameters (Table 4) clearly reveal that the binding affinities for complexes 1 and 2
ITC experiments were performed with the Microcal iTC200. CT-DNA (0.1 mmol) and complexes 1 (5 mmol), 2 (5 mmol) and 3 (5 mmol) were used for these experiments. All titrations were conducted in Tris-HCl buffer (5 mmol Tris and 25 mmol NaCl), pH=7.4 at 25° C. In each titration CT-DNA was loaded into the cell and 1 or 2 or 3 were taken into the syringe. Aliquot of 2 μL of compounds were injected into the cell containing DNA. In each experiment, the raw isotherms were corrected for heat of dilution by subtracting the isotherms representing the compounds injected into the Tris-HCl buffer. The resulting isotherms were fitted with the one set of site binding model provided with Microcal iTC200. (Refer FIG. 21)

MCF-7 cells = assay: MTT cell viability / cytotoxicity assay; assay type: cell-based; settings: for cell viability: MCF-7, 300 μM, 24 h incubation; for IC50: MCF-7, MTT, 24 h; for relatively low-toxic: summary statement

Row | Molecule | Ka (association constant) (calf-thymus DNA (CT-DNA)) | cell viability (MCF-7 cells) | IC50 (MCF-7 cells) | relatively low-toxic (MCF-7 cells)
1 | Cc1ccnc(-c2cc(C)ccn2)c1.F[P-](F)(F)(F)(F)F.F[P-](F)(F)(F)(F)F.[Ru+2].c1ccc(-c2ccccn2)nc1.c1ccc(-c2ccccn2)nc1 [Complex 3, [Ru(bpy)2(L3)]2+, reference compound] | (2.05 ± 0.85)103 M^−1 | ≥ 85% | ≥ 300 µM | –
2 | {bis-(2,2′-bpy)-(1-((4′-methyl-[2,2′-bipyridin]-4-yl)methyl)pyrimidine-2,4(1H,3H)-dione)}ruthenium(II) dichloride [Complex 2] | – | ≥ 85% | ≥ 300 µM | < 350 µM
3 | {bis-(2,2′-bpy)-(5-fluoro-1-((4′-methyl-[2,2′-bipyridin]-4-yl)methyl)pyrimidine-2,4(1H,3H)-dione)}ruthenium(II) dichloride [Complex 1] | – | ≥ 85% | ≥ 300 µM | < 350 µM
